## Primary screen of a compound library

By UniProt entry, the sequences of proteins in these tests, tags left out. Residues count along the entry.
UniProt A4I591, 1-473: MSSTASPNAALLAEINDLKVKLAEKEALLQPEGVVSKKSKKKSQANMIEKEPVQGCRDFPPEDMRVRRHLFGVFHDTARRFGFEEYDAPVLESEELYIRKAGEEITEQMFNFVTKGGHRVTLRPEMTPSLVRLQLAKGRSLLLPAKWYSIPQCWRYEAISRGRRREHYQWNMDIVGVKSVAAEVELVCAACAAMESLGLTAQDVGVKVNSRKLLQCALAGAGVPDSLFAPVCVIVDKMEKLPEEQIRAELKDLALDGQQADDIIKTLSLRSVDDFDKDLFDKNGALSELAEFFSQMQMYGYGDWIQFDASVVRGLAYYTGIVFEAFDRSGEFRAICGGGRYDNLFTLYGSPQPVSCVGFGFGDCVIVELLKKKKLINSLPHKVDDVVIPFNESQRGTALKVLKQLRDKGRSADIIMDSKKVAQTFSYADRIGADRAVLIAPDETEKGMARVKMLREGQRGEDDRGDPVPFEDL
UniProt I6X8D2, whole entry: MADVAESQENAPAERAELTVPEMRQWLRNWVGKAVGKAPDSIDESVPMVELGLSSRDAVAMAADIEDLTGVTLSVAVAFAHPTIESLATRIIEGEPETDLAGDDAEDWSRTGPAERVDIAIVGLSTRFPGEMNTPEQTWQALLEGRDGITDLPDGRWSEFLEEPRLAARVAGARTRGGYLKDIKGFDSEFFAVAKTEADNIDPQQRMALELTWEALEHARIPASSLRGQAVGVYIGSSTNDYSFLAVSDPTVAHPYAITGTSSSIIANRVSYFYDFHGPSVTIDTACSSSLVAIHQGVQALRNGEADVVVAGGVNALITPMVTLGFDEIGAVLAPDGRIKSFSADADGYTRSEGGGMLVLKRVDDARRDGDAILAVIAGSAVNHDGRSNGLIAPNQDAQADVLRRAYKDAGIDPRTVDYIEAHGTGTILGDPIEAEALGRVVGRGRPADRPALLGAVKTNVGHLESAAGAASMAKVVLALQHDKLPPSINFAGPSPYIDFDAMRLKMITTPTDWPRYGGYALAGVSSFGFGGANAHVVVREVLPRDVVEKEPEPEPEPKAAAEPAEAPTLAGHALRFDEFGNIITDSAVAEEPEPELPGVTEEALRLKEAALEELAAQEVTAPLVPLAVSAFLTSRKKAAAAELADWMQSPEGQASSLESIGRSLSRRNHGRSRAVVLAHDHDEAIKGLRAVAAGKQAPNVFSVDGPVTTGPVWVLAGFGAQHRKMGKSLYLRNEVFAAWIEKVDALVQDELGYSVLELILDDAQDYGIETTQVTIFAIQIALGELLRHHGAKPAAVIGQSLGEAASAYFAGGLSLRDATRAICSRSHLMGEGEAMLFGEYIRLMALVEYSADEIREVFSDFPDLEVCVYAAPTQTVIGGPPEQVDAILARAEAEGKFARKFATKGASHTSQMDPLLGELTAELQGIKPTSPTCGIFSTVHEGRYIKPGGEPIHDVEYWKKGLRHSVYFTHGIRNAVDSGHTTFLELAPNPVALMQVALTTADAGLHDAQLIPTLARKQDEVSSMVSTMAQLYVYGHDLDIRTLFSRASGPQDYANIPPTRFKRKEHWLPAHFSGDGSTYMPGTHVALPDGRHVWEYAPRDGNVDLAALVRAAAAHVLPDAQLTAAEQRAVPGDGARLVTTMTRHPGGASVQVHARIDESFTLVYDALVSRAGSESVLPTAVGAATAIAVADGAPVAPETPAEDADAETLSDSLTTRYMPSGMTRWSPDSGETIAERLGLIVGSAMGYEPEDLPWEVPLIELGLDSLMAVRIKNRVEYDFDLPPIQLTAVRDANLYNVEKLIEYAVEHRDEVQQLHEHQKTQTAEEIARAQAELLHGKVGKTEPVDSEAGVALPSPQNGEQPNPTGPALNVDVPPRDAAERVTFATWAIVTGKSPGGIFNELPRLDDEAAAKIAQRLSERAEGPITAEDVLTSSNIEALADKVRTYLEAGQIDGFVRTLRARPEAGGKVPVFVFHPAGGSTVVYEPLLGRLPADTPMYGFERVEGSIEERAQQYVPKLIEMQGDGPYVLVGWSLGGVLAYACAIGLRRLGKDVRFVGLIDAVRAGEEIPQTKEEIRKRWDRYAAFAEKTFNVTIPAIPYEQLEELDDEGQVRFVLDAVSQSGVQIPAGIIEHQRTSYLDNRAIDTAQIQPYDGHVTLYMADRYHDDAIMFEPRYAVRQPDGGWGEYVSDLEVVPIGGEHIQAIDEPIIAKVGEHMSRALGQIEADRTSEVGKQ

From ChEMBL document CHEMBL3988442, “University of Dundee, Small-Polar-MMV Screening Library” (2021).

The filed quantity is “Percent Effect” (%).
The record does not define 0% and 100%; most values in the screen are far below 50% and negative numbers occur (in some assays of this library far below -100).
This is an unselected part of the compounds tested.
Two or more numbers in one place are separate tests of the same structure; such repeats can differ widely.
A dash means the value is not listed here; it may have been measured.

Leishmania in macrophages: 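Cell assay of Leishmania donovani living inside macrophages; the read-out is not stated. Tested at 30 µM. Higher reads as stronger inhibition (inferred: compounds with an IC50 in retests scored well above the rest). Size under these conditions: about 69,000 compounds, about 1,000 of them at 50% or above in at least one test.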
LiHisRS: 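Enzyme assay of histidyl-tRNA synthetase; the read-out is not stated. Target: Histidine-tRNA ligase, Leishmania infantum (UniProt A4I591). Compounds at 30 µM. Direction is inferred from retests: higher values go with stronger inhibition. The assay is labelled LdHisRS but filed under L. infantum. Of about 69,000 compounds tested this way, about 410 (0.6%) reached 50% or more in at least one test.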
Pks13 thioesterase: 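Polyketide synthase Pks13, Mycobacterium tuberculosis (UniProt I6X8D2). Enzyme assay of the thioesterase domain of polyketide synthase 13; the read-out is not stated. Concentration: 30 µM. The record gives no direction; the compounds picked for IC50 retests had high values, so higher reads as stronger inhibition. About 67,000 compounds were tested under these conditions; 0.46% (about 300) showed 50% or more at least once.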

| # | compound | Leishmania in macrophages | LiHisRS | Pks13 thioesterase |
|---|---|---|---|---|
| 1 | `CC(C)Cc1cc(NC(=O)c2ccccc2F)n(C)n1` | -20.07 | 10.43 | -7.71 |
| 2 | `CC(C)N1CCCc2sc(C(=O)NC3CC3)nc21` | 23.77 | 12.28 | -14.84 |
| 3 | `COCCN1C(=O)[C@H]2CC[C@@H]1CN(c1ncccn1)C2` | - | 21.88 | 1.059 |
| 4 | `O=C(c1ccnnc1)N1C[C@H]2CN(Cc3cccc(F)c3)C(=O)[C@H]2C1` | - | 0.9174 | 4.064 |
| 5 | `CN(C)CCN1C(=O)CCCC12CCCN(C(=O)c1cc[nH]n1)C2.O=C(O)C(F)(F)F` (configuration not stated) | -8.37 | - | - |
| 6 | `CN(C)[C@@H]1CCN(C(=O)Cc2ccc(F)cc2)[C@H]1Cc1ccncc1.O=C(O)C(F)(F)F.O=C(O)C(F)(F)F` | 29.68 | - | - |
| 7 | `COc1ccc(OC)c(C(O)CNC(=O)Nc2ccc(F)cc2F)c1` (configuration not stated) | -9.314 | 5.263 | -17.75 |
| 8 | `CN1CCc2ncc(CNc3cc(N(C)C)ncn3)n2CC1.O=C(O)C(F)(F)F` | 21.34 | - | - |
| 9 | `CCOC(=O)N[C@H]1C[C@@H](C(=O)NCCc2cccc(Cl)c2)N(C)C1` | -24.82 | 12.2 | -0.02136 |
| 10 | `CC(C)CCN(C)C(=O)c1cc(CN2CCC(O)CC2)on1` | 25.01 | 8.602 | -14 |
| 11 | `CCN1CCN(CCNc2nc3ccc(C)cc3c(=O)n2C)CC1` | 7.256 | -5.714 | -2.073 |
| 12 | `CC(C)(CCS(C)(=O)=O)CNc1ccc2ccc(F)cc2n1` | -11.77 | 0.8772 | -3.308 |
| 13 | `Cc1nc(N2CCCC2)ncc1-c1cc(O)nc(NCC2CCCO2)n1` (configuration not stated) | -10.68 | 6.897 | 18.23 |
| 14 | `Cc1cccc(N2CC3(CCN(C(=O)NC(C)C)C3)CC2=O)c1` (configuration not stated) | 19.12 | 9.091 | 5.894 |
| 15 | `O=C(O)C(F)(F)F.O=C(O)C(F)(F)F.[H][C@@]12COC[C@]1(COc1cccnc1)CN(c1cc(OC)ncn1)C2` | 2.062 | - | - |
| 16 | `Clc1cc(Cl)cc(CN2CCC(NCc3ncc[nH]3)CC2)c1` | 84.31 | 2.74 | -10.38 |
| 17 | `CCc1ncc2c(n1)CN(C(=O)COC)C2` | 25.17 | 26.92 | -9.503 |
| 18 | `O=C(CC[C@@H]1CCCN2CCCC[C@H]12)NCCc1nc(O)cc(O)n1` | - | 8.602 | -3.336 |
| 19 | `CN(C)CCNC(=O)CC1CCN(c2cccnn2)CC1` | 31.77 | 10 | 0.7859 |
| 20 | `CSc1nc2cc(C)n(CC(=O)N3CCCC3)c2c(=O)n1CC(C)C` | 6.672 | 25.42 | -20.46 |
| 21 | `COc1cccc(-c2n[nH]cc2CNC2CCCN(C)C2)c1` (configuration not stated) | 8.067 | 3.571 | -14.96 |
| 22 | `CCC(C)N(Cc1ccncc1)C(=O)CCSC` (configuration not stated) | -3.342 | 16 | -0.306 |
| 23 | `CC(C)NC(=O)N1CCCC(Cn2cc(-c3ccc(F)cc3)nn2)C1` (configuration not stated) | 8.288 | 2.041 | -13.46 |
| 24 | `O=C(NCCCF)N1CCC(n2ccc(C(F)(F)F)n2)CC1` | 30.61 | 12.35 | -20.18 |
| 25 | `COCCN1CCC(CNc2nc3ccccc3o2)CC1` | 23.51 | 23.68 | -6.483 |
| 26 | `CN1C(=N)NC(=O)/C1=C/c1ccc(-c2ccc(Br)cc2)o1` | 6.843 & 5.124 | 15.79 | 4.206 |
| 27 | `CCNc1ccnc(N2Cc3cnc(CC(C)C)nc3C2)n1` | 20.15 | -4.301 | -28.56 |
| 28 | `Cc1cc(N(C)CCOc2ccccc2F)nc(N)n1` | 60.08 | 12.5 | -34.31 |
| 29 | `O=C(CN1CCN(C(=O)c2cccc(-c3ccoc3)c2)CC1)C1CC1` | 19.29 | 10.96 | -16.06 |
| 30 | `NC(=O)c1ccn(COc2ccccc2Cl)n1` | 19.78 | 9.735 | 2.697 |
| 31 | `CC(C)OCCN1CCC(N2CCN(C)C2=O)CC1` | 43.4 | 16.44 | -9.099 |
| 32 | `COc1ccc(C(=O)NCCCC2(C3OCCO3)CCOCC2)cc1` | 6.943 | 18.97 | -33.27 |
| 33 | `O=C1CCCC2=C1C(c1cc(Cl)ccc1F)Nc1nonc1N2` (configuration not stated) | 8.084 | 14.58 | -14.95 |
| 34 | `CC(=O)N1CCN(Cn2nc(-c3ccc(F)cc3)oc2=O)CC1` | 22.39 | 16.44 | -8.468 |
| 35 | `COCCOc1ccnc(-c2noc([C@@H]3CCCN3CC(C)C)n2)c1` | 18.47 | 14.86 | -17.24 |
| 36 | `CN(C)CCN1CCN(C)c2nc(-c3ccccc3)ncc2C1=O` | -3.741 & 43.82 | 20 | 15.85 |
| 37 | `[H][C@]12CC[C@]([H])(CN(Cc3ccccc3SC)C1)N(CC1CC1)C2=O` | -25.23 | - | - |
| 38 | `O=C(O)C(F)(F)F.[H][C@]12CCN(c3ccc(C)nn3)C[C@@]1([H])CN(Cc1cccnc1OC)C2` | 12.2 | - | - |
| 39 | `COc1ccnc(N2CCN(C(=O)c3ccn(C)c(=O)c3)CC2)n1` | 15.19 | 8.929 | -2.956 |
| 40 | `NC(=O)C1CCN(CCc2ccc(NCc3cccnc3)cc2)CC1` | -37.3 | 9.524 | 11.22 |
| 41 | `CCn1ccnc1CNC1CC(=O)N(CCc2cccc(Cl)c2)C1` (configuration not stated) | -2.328 | 11.7 | 20.28 |
| 42 | `CCN(Cc1cccc2c1OCO2)C(=O)C(C)c1cccnc1` (configuration not stated) | 30.56 | 0 | -13.01 |
| 43 | `Cn1cc(C(=O)NCC(Cc2cccc(F)c2)N2CCCCC2=O)nn1` (configuration not stated) | 9.318 & -26.81 | 17.95 | -22.53 |
| 44 | `CNC(=O)c1noc(CN2CC[C@](C)(O)[C@H](C)C2)n1` | 7.717 | 11.11 | -14.36 |
| 45 | `Cc1cncc(C(=O)N2CCC3(CC2)C(=O)Nc2ccccc23)c1` | 8.469 | 22.37 | -21.78 |
| 46 | `COc1ccc(C)cc1S(=O)(=O)NCCC(O)c1ccccc1` (configuration not stated) | 6.777 | 11.76 | -17.73 |
| 47 | `O=C1NC2(CCN(C(=O)Cc3ccsc3)CC2)CC1c1ccncc1` (configuration not stated) | -11.02 | 8.738 | -2.585 |
| 48 | `Fc1ccc2c(c1)nc1n2[C@@H](CNCc2nccs2)COC1` | 17.87 | 19.44 | -37.93 |
| 49 | `CC(c1cccc(O)c1)N(C)S(=O)(=O)c1cccnc1` (configuration not stated) | 20.46 | 14.29 | -9.25 |
| 50 | `CCN(CC)C(=O)c1nc2c(s1)CCN(C(=O)Nc1ccccc1)CC2` | 17.39 | 13.21 | 7.344 |
| 51 | `CNC(C)Cc1ccccc1Sc1ccc(O)cc1` (configuration not stated) | - | 24.14 | -9.879 |
| 52 | `CCc1ccc(C2CC(=O)Nc3cc(NS(C)(=O)=O)ccc32)o1` (configuration not stated) | 14.16 | 18.09 | 23.43 |
| 53 | `c1coc(-c2nc(CNC3CCC4(CCNCC4)CC3)no2)c1` | 8.781 | 22.45 | 2.629 |
| 54 | `N#Cc1ccnc(N2CCN(C3CCOC3=O)CC2)c1` (configuration not stated) | 29.92 | 15.07 | -9.322 |
| 55 | `O=C(NCCn1cnc(C2CCCC2)cc1=O)NCc1cccs1` | 3.35 & 6.412 | 1.739 | -28.01 |
| 56 | `CN1CCCC1c1cncc(C(=O)NCC2CC2)n1` (configuration not stated) | 4.62 | 15.6 | -9.948 |
| 57 | `Cc1csc(N2CCN(C(=O)Cc3cccs3)CC2)n1` | -2.466 | 13.16 | 9.719 |
| 58 | `CCC(NC(=O)c1ccc2[nH]ccc2c1)C(=O)N1CCOCC1` (configuration not stated) | -26.51 | -6.667 | - |
| 59 | `CSCC(C)(O)CNc1cccc(F)c1C#N` (configuration not stated) | 4.965 | 8.571 | -5.375 |
| 60 | `CC(C)CN1CC[C@@H]2[C@@H]1CCN2S(=O)(=O)c1cn(C)cn1` | - | -5.263 | -12.99 |
| 61 | `CN1CCCN(CC(CC(=O)Nc2ccc(Cl)cc2)C(=O)O)CC1` (configuration not stated) | 7.436 | 14.29 | -5.208 |
| 62 | `[H][C@]12CCN(C(=O)CC(C)C)CC[C@@]1([H])S(=O)(=O)CCN2S(C)(=O)=O` | 6.076 | - | - |
| 63 | `CCOCC(=O)Nc1ncc(I)cc1C` | 5.784 | 8.219 | -12.03 |
| 64 | `CCN(C)Cc1cnc(S(=O)(=O)CC)n1CCOC` | -30.16 | 7.619 | -2.585 |
| 65 | `N#Cc1cccnc1NCCNC(=O)N1CCCSCC1` | 11.5 | 19.23 | 23.69 |
| 66 | `CCN(CC1CCOC1)C(=O)c1cc(F)ccc1N1CCN(C)CC1` (configuration not stated) | -15.65 | -9.821 | -16.05 |
| 67 | `CC(C)c1noc(OCc2cccc(C#N)c2)n1` | 36.94 | 5.263 | -27.63 |
| 68 | `O=C(CCS(=O)(=O)C1CCCC1)NCCc1ccc2c(c1)OCCO2` | 34.47 | 12.9 | -1.585 |
| 69 | `NC(=O)COc1ccc(CNCc2ccc(F)cc2F)cc1` | - | 22.12 | -18.84 |
| 70 | `Cc1ccc(C(=O)NCc2cccnc2N(C)C)s1` | 30.72 | 21.15 | -6.061 |
| 71 | `CC(C)c1nsc(N2CCc3sccc3C2)n1` | 13.7 | 8.621 | -36.04 |
| 72 | `c1cncc(CN2CCCn3nnc(COCC4CC4)c3C2)c1` | - | 19 | - |
| 73 | `Cc1cnc(C(=O)Nc2cc(F)ccc2OCC2CCCO2)cn1` (configuration not stated) | -12.5 | -6.612 | -0.8632 |

Once more, the final 9:

{"compound": "N#Cc1cccnc1NCCNC(=O)N1CCCSCC1", "Leishmania in macrophages": 11.5, "LiHisRS": 19.23, "Pks13 thioesterase": 23.69}
{"compound": "CCN(CC1CCOC1)C(=O)c1cc(F)ccc1N1CCN(C)CC1", "stereo": "configuration not stated", "Leishmania in macrophages": -15.65, "LiHisRS": -9.821, "Pks13 thioesterase": -16.05}
{"compound": "CC(C)c1noc(OCc2cccc(C#N)c2)n1", "Leishmania in macrophages": 36.94, "LiHisRS": 5.263, "Pks13 thioesterase": -27.63}
{"compound": "O=C(CCS(=O)(=O)C1CCCC1)NCCc1ccc2c(c1)OCCO2", "Leishmania in macrophages": 34.47, "LiHisRS": 12.9, "Pks13 thioesterase": -1.585}
{"compound": "NC(=O)COc1ccc(CNCc2ccc(F)cc2F)cc1", "LiHisRS": 22.12, "Pks13 thioesterase": -18.84}
{"compound": "Cc1ccc(C(=O)NCc2cccnc2N(C)C)s1", "Leishmania in macrophages": 30.72, "LiHisRS": 21.15, "Pks13 thioesterase": -6.061}
{"compound": "CC(C)c1nsc(N2CCc3sccc3C2)n1", "Leishmania in macrophages": 13.7, "LiHisRS": 8.621, "Pks13 thioesterase": -36.04}
{"compound": "c1cncc(CN2CCCn3nnc(COCC4CC4)c3C2)c1", "LiHisRS": 19}
{"compound": "Cc1cnc(C(=O)Nc2cc(F)ccc2OCC2CCCO2)cn1", "stereo": "configuration not stated", "Leishmania in macrophages": -12.5, "LiHisRS": -6.612, "Pks13 thioesterase": -0.8632}